# According to the supplement of paper PMC10727501:
# The other results are listed elsewhere or left out. This data set is noisy: repeats of one test often differ as much as different tests do.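 Free-swimming zebrafish larvae were assessed for O-bend response probability to dark flashes (naive: first five; training: remaining flashes across four 60-flash blocks; test: later 60-flash block) and for OMR turning toward alternating leftward/rightward LED motion. Six treated larvae were compared against sixty 0.1% DMSO controls; hits required |SSMD|≥2.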
# Key:
# Conditions in all cases: 10 µM; pre-incubation: 30-90 min
# [1] = system: Danio rerio larvae (5 dpf, TLF); test: OMR-Perf (SSMD vs DMSO vehicle); higher = higher than vehicle (e.g. higher dark-flash O-bend response probability, or better optomotor performance)
# [2] = system: Danio rerio larvae (5 dpf, TLF); test: Prob-Test (SSMD vs DMSO vehicle); higher = higher than vehicle (e.g. higher dark-flash O-bend response probability, or better optomotor performance)
# [3] = system: Danio rerio larvae (5 dpf, TLF); test: Prob-Naive (SSMD vs DMSO vehicle); higher = higher than vehicle (e.g. higher dark-flash O-bend response probability, or better optomotor performance)
# [4] = system: Danio rerio larvae (5 dpf, TLF); test: Prob-Train (SSMD vs DMSO vehicle); higher = higher than vehicle (e.g. higher dark-flash O-bend response probability, or better optomotor performance)
SMILES,OMR-Perf [1],Prob-Test [2],Prob-Naive [3],Prob-Train [4]
C[C@]12CCC(=O)C=C1C=C[C@@H]1[C@@H]2CC[C@@]2(C)[C@H]1CC[C@@]2(O)CCC(=O)O.[K] [Potassium Canrenoate],0.859,0.201,-0.0812,0.308
O=C(Oc1ccc([N+](=O)[O-])cc1)N1CCC(C(O)(c2ccc3c(c2)OCO3)c2ccc3c(c2)OCO3)CC1,0.537,0.268,0.0849,0.154
Cc1sc2c(c1C)C(c1ccc(Cl)cc1)=N[C@H](CC(=O)OC(C)(C)C)c1nnc(C)n1-2,0.0104,0.00472,-2.44,-1.1
C/C(=C\c1csc(C)n1)[C@H]1C[C@@H]2O[C@@H]2CCC[C@H](C)[C@H](O)[C@@H](C)C(=O)C(C)(C)[C@H](O)CC(=O)O1 [Epothilone A],0.0774,0.034,0.214,0.346
C[C@@]12N[C@@H](Cc3ccccc31)c1ccccc12.O=C(O)/C=C/C(=O)O [(-)-MK 801 Maleate],-0.952,-1.25,0.389,-2.12
CN1c2ccccc2C(NCCCCCCC(=O)[O-])c2ccc(Cl)cc2S1(=O)=O.[Na+] (configuration not stated) [Tianeptine sodium],-0.424,-0.423,0.153,-0.353
CCOc1ccccc1-n1c(C(C)N2CCN(C(=O)COc3ccc(Cl)cc3)CC2)nc2ccccc2c1=O (configuration not stated) [Erastin],-0.403,-0.684,-0.293,-0.537
CC(=O)Nc1ccc(OC[C@](C)(O)C(=O)Nc2ccc([N+](=O)[O-])c(C(F)(F)F)c2)cc1 [Andarine],-0.277,-0.015,0.515,0.383
